Measured values from US20250375417A1, “OREXIN RECEPTOR 2 (OX2R) AGONIST FOR USE IN NARCOLEPSY TYPE 1 (NT1)” (TAKEDA PHARMACEUTICAL COMPANY LIMITED, priority 2024, published 2025).

Tested on: participants with NT1
Test: Treatment Satisfaction Questionnaire for Medication (TSQM), Phase 2 NT1 trial
Type: in vivo, human
[1] = Week 8, range across Compound A doses

## CCS(=O)(=O)N[C@@H]1[C@H](Cc2cccc(-c3cc(F)cc(F)c3)c2F)N(C(=O)C(C)(C)O)CC1(F)F [Compound A, N-{(2S,3R)-4,4-difluoro-1-(2-hydroxy-2-methylpropanoyl)-2-[(2,3′,5′-trifluoro[1,1′-biphenyl]-3-yl)methyl]pyrrolidin-3-yl}ethanesulfonamide]
Week 8, 7 mg-dose
  TSQM satisfaction with side-effects score: 85.9
Week 8, across Compound A treatment arms (other than 7 mg)
  TSQM satisfaction with side-effects score: 92.4-96.4
[1]
  LS mean TSQM effectiveness domain score: 67.7-80.5
  LS mean TSQM global satisfaction domain score: 71.0-83.7
  TSQM convenience domain score: 70.9-74.6
